Out of some 9,700 compounds screened, about 180 (1.9%) were called active. Roughly 35% stayed inconclusive and do not appear here. The call rests on the fitted dose curve. The list shows a part of the results.
Target: Retinoic acid receptor RXR-alpha, Homo sapiens (UniProt P19793)
Experiment: qHTS assay to identify small molecule agonists of the RXR signaling pathway (AID 1159527)

Protein sequences, listed by entry. Tags and fused reporters are not part of them. Lines headed by an entry give the natural chain unless they say otherwise; changes in a name come on top.
UniProt P19793: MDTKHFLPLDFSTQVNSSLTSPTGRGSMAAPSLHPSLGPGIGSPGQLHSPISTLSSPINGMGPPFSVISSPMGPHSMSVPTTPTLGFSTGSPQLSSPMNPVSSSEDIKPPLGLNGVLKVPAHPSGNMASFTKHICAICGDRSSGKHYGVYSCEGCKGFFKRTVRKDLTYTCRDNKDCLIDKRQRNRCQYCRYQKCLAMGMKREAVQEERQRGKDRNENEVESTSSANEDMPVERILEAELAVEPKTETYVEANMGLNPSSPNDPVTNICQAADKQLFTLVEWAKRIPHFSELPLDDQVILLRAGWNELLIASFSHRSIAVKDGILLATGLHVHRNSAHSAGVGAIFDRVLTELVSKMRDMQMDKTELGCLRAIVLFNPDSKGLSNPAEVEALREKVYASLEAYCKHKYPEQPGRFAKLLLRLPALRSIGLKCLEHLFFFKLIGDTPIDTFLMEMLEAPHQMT

| SMILES | outcome |
| --- | --- |
| [I-].[K+] | inactive |

Source: the GenesisPotency data set
